The supplement of paper PMC7661543
Differences between knockout arms are mostly noise.

Test system: SKBR3
Experiment: relative cell number vs DMSO control (72 h) (% of DMSO); higher = less growth inhibition (more cells)
Experimental: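 QMAP-Seq: a pool of 5 breast cancer cell lines (ZR-75-1, SKBR3, HCC-38, MDA-MB-231, BT-20), each carrying 12 doxycycline-inducible Cas9 sgRNA perturbations (11 knockouts plus non-targeting sgNT), was treated with compounds for 72 h at four 10-fold doses (10 nM-10 uM or 1 nM-1 uM range). Barcodes were amplified and sequenced, and cell number was interpolated from 293T spike-in standard curves. The result is expressed as % of the median of DMSO wells. Two biological replicates.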

Nc1ccccc1NC(=O)c1ccc(CNC(=O)OCc2cccnc2)cc1 [Entinostat]
Conditions | relative cell number
sgRNA knockout: sgATF3, 10 nM | 108
sgRNA knockout: sgATF3, 100 nM | 118.4
sgRNA knockout: sgATF3, 1000 nM | 23.4
sgRNA knockout: sgATF3, 10000 nM | 7.01
sgRNA knockout: sgATF4, 10 nM | 94.5
sgRNA knockout: sgATF4, 100 nM | 102
sgRNA knockout: sgATF4, 1000 nM | 31.5
sgRNA knockout: sgATF4, 10000 nM | 5.82
sgRNA knockout: sgATF6, 10 nM | 103
sgRNA knockout: sgATF6, 100 nM | 98.77
sgRNA knockout: sgATF6, 1000 nM | 23.2
sgRNA knockout: sgATF6, 10000 nM | 6.37
sgRNA knockout: sgATG7, 10 nM | 85.4
sgRNA knockout: sgATG7, 100 nM | 85.8
sgRNA knockout: sgATG7, 1000 nM | 26.2
sgRNA knockout: sgATG7, 10000 nM | 7.71
sgRNA knockout: sgERN1, 10 nM | 87.4
sgRNA knockout: sgERN1, 100 nM | 107
sgRNA knockout: sgERN1, 1000 nM | 26.9
sgRNA knockout: sgERN1, 10000 nM | 5.27
sgRNA knockout: sgHSF1, 10 nM | 107
sgRNA knockout: sgHSF1, 100 nM | 76.7
sgRNA knockout: sgHSF1, 1000 nM | 24.6
sgRNA knockout: sgHSF1, 10000 nM | 6.67
sgRNA knockout: sgHSF2, 10 nM | 96.4
sgRNA knockout: sgHSF2, 100 nM | 82.5
sgRNA knockout: sgHSF2, 1000 nM | 23.7
sgRNA knockout: sgHSF2, 10000 nM | 6.85
sgRNA knockout: sgKEAP1, 10 nM | 119
sgRNA knockout: sgKEAP1, 100 nM | 90.5
sgRNA knockout: sgKEAP1, 1000 nM | 29.6
sgRNA knockout: sgKEAP1, 10000 nM | 7.08
sgRNA knockout: sgNFE2L2, 10 nM | 94.7
sgRNA knockout: sgNFE2L2, 100 nM | 107
sgRNA knockout: sgNFE2L2, 1000 nM | 26.7
sgRNA knockout: sgNFE2L2, 10000 nM | 8.28
sgRNA knockout: sgSLC35F2, 10 nM | 98.6
sgRNA knockout: sgSLC35F2, 100 nM | 122
sgRNA knockout: sgSLC35F2, 1000 nM | 29.8
sgRNA knockout: sgSLC35F2, 10000 nM | 5.83
sgRNA knockout: sgXBP1, 10 nM | 111
sgRNA knockout: sgXBP1, 100 nM | 118
sgRNA knockout: sgXBP1, 1000 nM | 28.7
sgRNA knockout: sgXBP1, 10000 nM | 6.19

CC(C)(C)c1cnc(CSc2cnc(NC(=O)C3CCNCC3)s2)o1 [SNS032]
Conditions | relative cell number
sgRNA knockout: sgATF3, 10 nM | 76.8
sgRNA knockout: sgATF3, 100 nM | 88.9
sgRNA knockout: sgATF3, 1000 nM | 7.3
sgRNA knockout: sgATF3, 10000 nM | 16.5
sgRNA knockout: sgATF4, 10 nM | 109
sgRNA knockout: sgATF4, 100 nM | 83.7
sgRNA knockout: sgATF4, 1000 nM | 10.2
sgRNA knockout: sgATF4, 10000 nM | 15.6
sgRNA knockout: sgATF6, 10 nM | 97.2
sgRNA knockout: sgATF6, 100 nM | 69.9
sgRNA knockout: sgATF6, 1000 nM | 8.27
sgRNA knockout: sgATF6, 10000 nM | 14.4
sgRNA knockout: sgATG7, 10 nM | 114
sgRNA knockout: sgATG7, 100 nM | 86.4
sgRNA knockout: sgATG7, 1000 nM | 5.87
sgRNA knockout: sgATG7, 10000 nM | 16.6
sgRNA knockout: sgERN1, 10 nM | 106
sgRNA knockout: sgERN1, 100 nM | 95.7
sgRNA knockout: sgERN1, 1000 nM | 12.3
sgRNA knockout: sgERN1, 10000 nM | 14.9
sgRNA knockout: sgHSF1, 10 nM | 79.4
sgRNA knockout: sgHSF1, 100 nM | 83.5
sgRNA knockout: sgHSF1, 1000 nM | 8.63
sgRNA knockout: sgHSF1, 10000 nM | 18.8
sgRNA knockout: sgHSF2, 10 nM | 100
sgRNA knockout: sgHSF2, 100 nM | 66.3
sgRNA knockout: sgHSF2, 1000 nM | 12.3
sgRNA knockout: sgHSF2, 10000 nM | 14.3
sgRNA knockout: sgKEAP1, 10 nM | 92
sgRNA knockout: sgKEAP1, 100 nM | 71.8
sgRNA knockout: sgKEAP1, 1000 nM | 5.56
sgRNA knockout: sgKEAP1, 10000 nM | 13.6
sgRNA knockout: sgNFE2L2, 10 nM | 117
sgRNA knockout: sgNFE2L2, 100 nM | 82.5
sgRNA knockout: sgNFE2L2, 1000 nM | 9.68
sgRNA knockout: sgNFE2L2, 10000 nM | 15.8
sgRNA knockout: sgSLC35F2, 10 nM | 112
sgRNA knockout: sgSLC35F2, 100 nM | 84.8
sgRNA knockout: sgSLC35F2, 1000 nM | 6.82
sgRNA knockout: sgSLC35F2, 10000 nM | 10.4
sgRNA knockout: sgXBP1, 10 nM | 95.3
sgRNA knockout: sgXBP1, 100 nM | 98.8
sgRNA knockout: sgXBP1, 1000 nM | 6.48
sgRNA knockout: sgXBP1, 10000 nM | 13.9

CC(C)c1cc(-c2n[nH]c(=O)n2-c2ccc3c(ccn3C)c2)c(O)cc1O [Ganetespib]
Conditions | relative cell number
sgRNA knockout: sgATF3, 1 nM | 84.9
sgRNA knockout: sgATF3, 10 nM | 115
sgRNA knockout: sgATF3, 100 nM | 32.3
sgRNA knockout: sgATF3, 1000 nM | 35.2
sgRNA knockout: sgATF4, 1 nM | 91.9
sgRNA knockout: sgATF4, 10 nM | 96.5
sgRNA knockout: sgATF4, 100 nM | 29.22
sgRNA knockout: sgATF4, 1000 nM | 30
sgRNA knockout: sgATF6, 1 nM | 92.7
sgRNA knockout: sgATF6, 10 nM | 89
sgRNA knockout: sgATF6, 100 nM | 30.3
sgRNA knockout: sgATF6, 1000 nM | 30.1
sgRNA knockout: sgATG7, 1 nM | 89.4
sgRNA knockout: sgATG7, 10 nM | 88.5
sgRNA knockout: sgATG7, 100 nM | 26.6
sgRNA knockout: sgATG7, 1000 nM | 36.4
sgRNA knockout: sgERN1, 1 nM | 79.2
sgRNA knockout: sgERN1, 10 nM | 116
sgRNA knockout: sgERN1, 100 nM | 29.9
sgRNA knockout: sgERN1, 1000 nM | 29.5
sgRNA knockout: sgHSF1, 1 nM | 95.5
sgRNA knockout: sgHSF1, 10 nM | 105
sgRNA knockout: sgHSF1, 100 nM | 25.854
sgRNA knockout: sgHSF1, 1000 nM | 34.7
sgRNA knockout: sgHSF2, 1 nM | 83.6
sgRNA knockout: sgHSF2, 10 nM | 72.6
sgRNA knockout: sgHSF2, 100 nM | 27.1
sgRNA knockout: sgHSF2, 1000 nM | 36.2
sgRNA knockout: sgKEAP1, 1 nM | 85.9
sgRNA knockout: sgKEAP1, 10 nM | 80.6
sgRNA knockout: sgKEAP1, 100 nM | 30.5
sgRNA knockout: sgKEAP1, 1000 nM | 33.9
sgRNA knockout: sgNFE2L2, 1 nM | 101
sgRNA knockout: sgNFE2L2, 10 nM | 91.7
sgRNA knockout: sgNFE2L2, 100 nM | 32.5
sgRNA knockout: sgNFE2L2, 1000 nM | 38.5
sgRNA knockout: sgSLC35F2, 1 nM | 96.46
sgRNA knockout: sgSLC35F2, 10 nM | 85.8
sgRNA knockout: sgSLC35F2, 100 nM | 33.6
sgRNA knockout: sgSLC35F2, 1000 nM | 38.6
sgRNA knockout: sgXBP1, 1 nM | 107
sgRNA knockout: sgXBP1, 10 nM | 78.3
sgRNA knockout: sgXBP1, 100 nM | 28.4
sgRNA knockout: sgXBP1, 1000 nM | 32.4
